Laboratory results as given in patent publication US8940911B2, “Squarylated lactones inhibitors for bacterial biofilm formation” (Syracuse University, priority 2012, dated 2015).
Some results were stated once for a whole list of compounds, not compound by compound. At least one structure is not confirmed: it was looked up by name or label, or the drawing left a doubt.

Test system: E. coli RP437
Assay: Static biofilm inhibition assay (crystal violet, 96-well plate)
Format: cell-based, Escherichia coli
Details: E. coli RP437, 200 μM, 24 h
Text: A primary objective was to test the ability of SHLs to inhibit biofilm formation against E. coli RP437. […] Viable controls were required that would allow us to measure and compare the activity of SHLs against known biofilm inhibitors and naturally occurring AI-1 signal molecules. […] The activity of this class of molecule is presumably similar or even marginally higher than that of brominated furanone (BF8 48) (56%).
For the present invention, the E. coli RP437 biofilms were allowed to develop in a 96-well plate in the absence or presence of SHLs. After 24 hours, the planktonic bacteria and remaining media were removed and the crystal violet was introduced in the wells. The bacterial biofilm being formed at the air/liquid interface on the inside wall of the well is stained readily by crystal violet. After removing the excess crystal violet and repeatedly washing the wells with water, followed by ethanol solubilization of the dye, allows quantification of the amount of biofilm by spectrophotometry (OD600). […]
An overnight culture of E. coli RP437 grown in LB media (OD600 of 1.0) containing streptomycin (10 μg/mL) was subsequently sub-cultured to an OD600 of 0.04 (1:100 dilution with LB media). […] Finally, the biofilm formed was quantified by transferring 100 μL of the ethanol solution into a fresh polystyrene microtiter dish that was subsequently read by an absorbance plate reader (A600). […]

SMILES: C=Cc1c(NC2CCOC2=O)c(=O)c1=O (stereo not shown) [vinyl-SHL 3]
- inhibition of biofilm formation: 55-60%
